Experimental data reported in article PMC4991497.
Results are given in words; binding and its absence hold for the method and conditions named. Binding seen in cells or lysates may run through a third protein. Some results given as binding are weak or reduced against the parent protein; the word gives no strength. Where a sequence is shown, tags or fusion partners need not be part of it.

T1: Flag-DNM2 (UniProt P50570)
T1 sequence: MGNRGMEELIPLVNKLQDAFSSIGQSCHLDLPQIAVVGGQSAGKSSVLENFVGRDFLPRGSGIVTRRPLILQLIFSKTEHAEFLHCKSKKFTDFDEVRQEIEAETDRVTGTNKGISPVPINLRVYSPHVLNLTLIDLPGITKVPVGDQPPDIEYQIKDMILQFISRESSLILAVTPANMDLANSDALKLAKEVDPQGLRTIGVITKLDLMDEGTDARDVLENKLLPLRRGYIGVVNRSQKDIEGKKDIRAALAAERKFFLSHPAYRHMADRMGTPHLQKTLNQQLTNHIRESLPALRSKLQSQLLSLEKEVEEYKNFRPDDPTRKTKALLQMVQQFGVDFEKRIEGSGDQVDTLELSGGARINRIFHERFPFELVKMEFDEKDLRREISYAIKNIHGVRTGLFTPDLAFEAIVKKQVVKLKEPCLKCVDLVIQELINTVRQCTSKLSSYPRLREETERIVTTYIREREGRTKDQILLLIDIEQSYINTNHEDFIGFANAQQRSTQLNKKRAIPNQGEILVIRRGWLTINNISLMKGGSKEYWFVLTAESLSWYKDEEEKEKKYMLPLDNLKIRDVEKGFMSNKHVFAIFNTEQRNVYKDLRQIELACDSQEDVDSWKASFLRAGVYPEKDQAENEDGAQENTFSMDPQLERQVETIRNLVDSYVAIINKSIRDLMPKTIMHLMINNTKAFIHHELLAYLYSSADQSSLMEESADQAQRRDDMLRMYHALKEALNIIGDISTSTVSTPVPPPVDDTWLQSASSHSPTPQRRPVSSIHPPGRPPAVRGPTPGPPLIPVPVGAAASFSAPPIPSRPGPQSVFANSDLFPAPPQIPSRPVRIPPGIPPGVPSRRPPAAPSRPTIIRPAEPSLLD

B1: Bif-1 (protein, UniProt Q9Y371 1-365)
chain: MNIMDFNVKKLAADAGTFLSRAVQFTEEKLGQAEKTELDAHLENLLSKAECTKIWTEKIMKQTEVLLQPNPNARIEEFVYEKLDRKAPSRINNPELLGQYMIDAGTEFGPGTAYGNALIKCGETQKRIGTADRELIQTSALNFLTPLRNFIEGDYKTIAKERKLLQNKRLDLDAAKTRLKKAKAAETRNSSEQELRITQSEFDRQAEITRLLLEGISSTHAHHLRCLNDFVEAQMTYYAQCYQYMLDLQKQLGSFPSNYLSNNNQTSVTPVPSVLPNAIGSSAMASTSGLVITSPSNLSDLKECSGSRKARVLYDYDAANSTELSLLADEVITVFSVVGMDSDWLMGERGNQKGKVPITYLELLN
B2: Bif-1-SH3-Myc (domain or fragment, UniProt Q9Y371 305-365)
chain: SGSRKARVLYDYDAANSTELSLLADEVITVFSVVGMDSDWLMGERGNQKGKVPITYLELLN

Molecular target: T1, Flag-DNM2
Experiment: co-IP; 293T cells co-transfected with Flag-DNM2 and Bif-1 or its deletion mutants; 1% Triton X-100 lysis buffer (30 mM Tris-HCl pH 7.5, 150 mM NaCl, 10% glycerol); immunoprecipitation with anti-Flag antibody; immunoblot

Binder	binding
B1	binds
B2	binds
